Measured values from PubChem BioAssay AID504444 (National Center for Advancing Translational Sciences (NCATS), 2011).
In all, about 360,000 compounds went through this assay and about 7,500 (2.1%) were called active. The shares of active, inactive and inconclusive entries below differ from those in the screen. Calls come from the whole dose curve; as a rule, active = well fitted inhibition curve with a large enough effect; inconclusive = small, poorly fitted or top-dose-only effect, or effect the other way; inactive = flat fitted curve, though single readings scatter. A potency beside an inconclusive call is a rough fit, not a confirmed value.

Experiment: Nrf2 qHTS screen for inhibitors; note: nearly all actives have a fitted effect of over 60% in size
Conditions: A549 ARE-Fluc reporter, luciferase luminescence, 18-24 h; series mostly up to 46 µM
Outline: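 In this cell-based qHTS, ARE-driven firefly luciferase in A549 cells reports Nrf2 activity; the luminescent signal after BugLite lysis is the measured value, with a prior CellTiter-Fluor read for cell health.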
Potency is the fitted concentration of half-maximal effect.

Row | Structure (SMILES) | Potency
1 | O=C(NNc1ccccc1[N+](=O)[O-])Nc1ccc(Cl)c(Cl)c1 | inconclusive: 29.1 µM [falling, single point]
2 | COc1ccc2c(C)cc(SCC(=O)Nc3nsc(-c4ccc(C(C)(C)C)cc4)n3)nc2c1 | inconclusive: 2.06 µM [activator, full curve, poor fit]
3 | COc1ccc(NS(=O)(=O)c2ccc(O)c(NC(=O)c3cc4c(C)nn(-c5ccc(F)cc5)c4s3)c2)cc1 | inconclusive: 29.1 µM [falling, single point]
4 | O=C(CN1CCN(S(=O)(=O)N2CCCCC2)CC1)Nc1ccc(Br)cc1 | inconclusive: 25.9 µM [falling, single point]
5 | Cc1cc(C(=O)CSc2nnnn2-c2ccccc2)c(C)n1CC1CCCO1 (configuration not stated) | inconclusive: 2.31 µM [activator, full curve]
6 | COc1cc(NC(=O)CCCSc2nc(-c3ccco3)cc(C(F)(F)F)n2)cc(OC)c1OC | inconclusive: 29.1 µM [falling, single point]
7 | Clc1cccc(Cl)c1C[n+]1ccc2ccccc2c1 | active: 6.51 µM
8 | CC1CCN(C(=O)CSc2nc3c(c(=O)n2C)SCC3)CC1 | inactive
9 | Cc1cc(-c2nc3ncccc3o2)ccc1NC(=O)COc1ccc(C(C)(C)C)cc1 | inconclusive: 29.1 µM [falling, single point]
10 | COC(=O)C(C)NC(=S)N1CCN(c2c(F)cc3c(=O)c(C(=O)O)cn(C4CC4)c3c2OC)CC1C (configuration not stated) | inactive
11 | CCN(CC)c1ccc2nc3ccc(N)cc3[n+](-c3ccccc3)c2c1 | active: 14.6 µM
12 | FC(F)(F)c1cccc(N2CCN(C(=S)NC3CCCC3)CC2)c1 | active: 23.1 µM
13 | CN1C(=O)CSc2ccc(NC(=O)Nc3ccccn3)cc21 | inconclusive: 8.2 µM [falling, partial curve]
14 | CCOc1c([N+](=O)[O-])cc2c(C)c(C(=O)N3CCN(C)CC3)oc2c1OCC | inconclusive: 7.31 µM [falling, partial curve, poor fit]
15 | Cc1ccc[n+](Cc2ccc([N+](=O)[O-])cc2)c1 | inconclusive: 2.31 µM [falling, partial curve, poor fit]
16 | CC(C)(C)C(=O)COC(=O)c1cc(S(=O)(=O)N2CCCCC2)ccc1N1CCOCC1 | inconclusive: 0.164 µM [falling, partial curve, poor fit]
17 | Cc1cc2oc(C(=O)N(Cc3ccccc3)C3CCS(=O)(=O)C3)cc(=O)c2cc1C (configuration not stated) | inactive
18 | O=C(Nc1nccs1)c1ccccc1N=Cc1ccccc1 | inactive
19 | NS(=O)(=O)c1ccc(NC(=O)Nc2ccc(Cl)cc2)cc1 | inconclusive: 10.3 µM [activator, partial curve]
20 | COc1ccc2oc(C(=O)OCC(=O)Nc3ccc(NC(C)=O)cc3)c(C)c2c1 | inactive
21 | CCOC(=O)c1cc(-c2ccccc2)nn1-c1ccccn1 | inactive
22 | CC(=O)Nc1ccc(S(=O)(=O)N2CCN(Cc3ccccc3[N+](=O)[O-])CC2)cc1 | inconclusive: 14.6 µM [falling, partial curve]
23 | [O-]/C(=C(\C(=S)Nc1ccc(SC(F)F)cc1)[n+]1ccccc1)c1ccc(Cl)cc1Cl | inconclusive: 18.4 µM [falling, single point]

Row | Structure (SMILES) | Potency
24 | Cc1cc(NC(=O)c2cnn3cccnc23)no1 | inconclusive: 9.2 µM [activator, partial curve]
25 | COC(=O)c1ccc(CSc2nnc3n(Cc4ccccc4OC)c(=O)c4ccccc4n23)o1 | inconclusive: 29.1 µM [falling, partial curve, poor fit]
26 | Cc1ccc(NC(=O)CN2C(=O)C(c3ccccc3)=NC2(C)C)cc1C | inconclusive: 14.6 µM [activator, single point]
27 | CCN1/C(=C/c2cc[n+](CCCS(=O)(=O)[O-])c3ccccc23)Sc2ccccc21 | inactive
28 | CCc1ccc(-n2c(=O)c3cccnc3n2CC(=O)N(CC)c2cccc(C)c2)cc1 | inconclusive: 29.1 µM [falling, single point]
29 | COc1cccc(C(=O)Nc2ccc3c(c2)CCCN3C(=O)c2cccs2)c1OC | active: 20.6 µM
30 | COc1ccc(-c2[nH]c(-c3ccc(F)cc3)nc2SCC(=O)Nc2ccc(OC)c(OC)c2)cc1 | inactive
31 | c1ccc(CSc2ccc(-c3ccccn3)nn2)cc1 | inconclusive: 2.06 µM [activator, partial curve]
32 | CCCc1cc(=O)oc2cc(C)cc(OC(=O)c3ccco3)c12 | inconclusive: 29.1 µM [activator, single point]
33 | COc1cc2c(cc1OC)CN(C(=O)c1cc(Cl)nc(Cl)c1)CC2 | inconclusive: 4.61 µM [falling, full curve, poor fit]
34 | CCCCn1c(-c2csc3c2CCCC3)n[nH]c1=S | inactive
35 | CC(=O)Nc1c(O)nc(SCC(=O)Nc2ccc(C(C)=O)cc2)[nH]c1=O | inconclusive: 25.9 µM [activator, single point]
36 | Cc1ccc(NC(=O)N(Cc2ccc3c(c2)OCO3)Cc2cc3cc4c(cc3[nH]c2=O)OCCO4)cc1 | inconclusive: 13 µM [falling, partial curve, poor fit]
37 | COc1ccc(C(=O)Nc2ccc(Cl)c(Cl)c2)c(OC)n1 | inconclusive: 1.3 µM [activator, full curve]
38 | CCN(CC)C(=O)Oc1ccc2c(=O)c(-c3ccccc3)coc2c1 | inconclusive: 2.91 µM [activator, single point]
39 | CC(=NCCCN(C)C)C1=C(O)c2ccccc2C1=O | inconclusive: 16.4 µM [activator, partial curve, poor fit]
40 | O=C(N/N=C/c1c[nH]c2ccccc12)c1cc(-c2cccc3ccccc23)n[nH]1 | inconclusive: 25.9 µM [activator, single point]
41 | N#CCCn1cc(C(=O)Nc2ccc([N+](=O)[O-])cc2)c(-c2cc3ccccc3o2)n1 | inconclusive: 29.1 µM [falling, single point]
42 | COc1ccc(/C=N/N2CCN(Cc3ccccc3)CC2)cc1 | inconclusive: 29.1 µM [falling, single point]
43 | CCn1cc2nc(SCc3cccc(C(F)(F)F)c3)n(CCc3ccccc3)c(=O)c2n1 | active: 14.6 µM
44 | CCSc1oc(-c2cccs2)nc1S(=O)(=O)c1ccccc1 | inconclusive: 25.9 µM [falling, single point]
45 | CCN(CC)C(=S)SCC(=O)Nc1cccc(C(F)(F)F)c1 | inconclusive: 10.3 µM [falling, partial curve]
46 | CCOC(=O)CSc1nc(-c2ccc(OC)cc2)ns1 | inconclusive: 16.4 µM [falling, partial curve, poor fit]

Rewritten as labelled records: entries from further up
COC(=O)c1ccc(CSc2nnc3n(Cc4ccccc4OC)c(=O)c4ccccc4n23)o1
  Potency: inconclusive: 29.1 µM [falling, partial curve, poor fit]
COc1cccc(C(=O)Nc2ccc3c(c2)CCCN3C(=O)c2cccs2)c1OC
  Potency: active: 20.6 µM

Pulled one by one from above, two records:
Row | Structure (SMILES) | Potency
46 | CCOC(=O)CSc1nc(-c2ccc(OC)cc2)ns1 | inconclusive: 16.4 µM [falling, partial curve, poor fit]
32 | CCCc1cc(=O)oc2cc(C)cc(OC(=O)c3ccco3)c12 | inconclusive: 29.1 µM [activator, single point]

Going on with the list.

Row | Structure (SMILES) | Potency
47 | COCCn1c(-c2ccccc2)cnc1N | inactive
48 | Cc1ccc(-n2c(SCC(=O)N3CCC(C(=O)O)CC3)nc3ccccc3c2=O)cc1C | inconclusive: 23.1 µM [activator, single point]
49 | Cc1nc(-c2ccccc2)sc1-c1n[nH]c(=S)n1C | inconclusive: 0.92 µM [falling, full curve, poor fit]
50 | Nc1ccc(C(=O)N/N=C/c2sc(N3CCOCC3)nc2-c2ccccc2)cc1 | inactive
51 | COc1ccc(-c2cc(C)no2)cc1S(=O)(=O)Nc1cccc(C(F)(F)F)c1 | active: 18.4 µM
52 | CCN1C(=C2C(=O)c3ccccc3C2=O)C=Cc2ccccc21 | inconclusive: 29.1 µM [activator, single point]
53 | COc1cccc(N2CCN(c3ncccn3)CC2)c1 | inconclusive: 9.2 µM [activator, partial curve]
54 | CCCC1S/C(=N/N=C/c2ccc(OC)cc2)N(Cc2ccccc2)C1=O (configuration not stated) | inconclusive: 7.31 µM [falling, partial curve, poor fit]
55 | CC1CCCCC1NC(=O)COC(=O)COc1ccccc1F (configuration not stated) | inactive
56 | Nc1ccc(C(=O)N/N=C/c2ccccc2)cc1 | inconclusive: 10.3 µM [activator, partial curve, poor fit]
57 | COC(=O)/C=C1\S/C(=N/N=C/c2ccco2)NC1=O | inconclusive: 6.51 µM [activator, single point]
58 | COC(=O)[C@@]12CCCCN1[C@H](c1ccc(-c3ccc4c(c3)OCO4)c(OC)c1)[C@@H]1C(=O)N(C)C(=O)[C@@H]12 | inconclusive: 29.1 µM [falling, single point]
59 | COc1ccc(NC(=O)c2cccc(S(=O)(=O)N3CCc4ccccc43)c2)cn1 | inconclusive: 16.4 µM [falling, single point]
60 | COc1ccc(OC(C)C(=O)N2CCOCC2)cc1 (configuration not stated) | inactive
61 | Cc1ccc(C)c(S(=O)(=O)N2CCN(CC(=O)NC(=O)NCc3ccco3)CC2)c1 | inconclusive: 9.2 µM [falling, partial curve]
62 | CCc1ccc(NC(=O)CCS(=O)(=O)c2ccc3c(c2)oc(=O)n3C)cc1 | inconclusive: 0.411 µM [falling, partial curve, poor fit]
63 | O=C(NC12CC3CC(CC(C3)C1)C2)c1ccc(-c2ccccc2Cl)o1 | inconclusive: 4.61 µM [activator, partial curve]
64 | O=C(O)c1nn(CCOc2c(Cl)cccc2Cl)c(=O)c2ccccc12 | inconclusive: 20.6 µM [activator, partial curve]
65 | Cc1ccc(-n2c(SCc3nc(-c4ccccc4C)no3)nnc2-c2ccncc2)cc1C | inactive
66 | Cc1cc(C(=O)N(C)C2CCCCC2)no1 | inactive
67 | O=C1CC(c2ccc(Cl)cc2)SC(N(c2ccccc2)c2ccccc2)=N1 (configuration not stated) | inconclusive: 25.9 µM [falling, single point]
